Data taken from the supplement of paper PMC10849652.
Some of the results follow.

Amino acid sequences for entries named in this document (tags omitted). A change or cut given only in a name is not applied to a line headed by its entry.
UniProt Q13451: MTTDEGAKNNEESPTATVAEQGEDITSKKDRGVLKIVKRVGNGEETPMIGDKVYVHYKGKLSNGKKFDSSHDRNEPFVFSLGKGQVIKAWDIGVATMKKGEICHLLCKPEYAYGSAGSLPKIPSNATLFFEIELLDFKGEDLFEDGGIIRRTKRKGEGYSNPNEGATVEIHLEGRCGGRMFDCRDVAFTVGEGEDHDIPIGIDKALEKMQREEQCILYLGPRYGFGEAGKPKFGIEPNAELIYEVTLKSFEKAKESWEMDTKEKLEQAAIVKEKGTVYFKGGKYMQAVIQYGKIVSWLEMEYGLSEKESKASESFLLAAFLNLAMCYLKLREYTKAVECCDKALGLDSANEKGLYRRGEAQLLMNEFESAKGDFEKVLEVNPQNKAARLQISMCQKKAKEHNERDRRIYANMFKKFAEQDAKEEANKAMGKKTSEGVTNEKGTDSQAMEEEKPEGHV
UniProt Q9NSD9: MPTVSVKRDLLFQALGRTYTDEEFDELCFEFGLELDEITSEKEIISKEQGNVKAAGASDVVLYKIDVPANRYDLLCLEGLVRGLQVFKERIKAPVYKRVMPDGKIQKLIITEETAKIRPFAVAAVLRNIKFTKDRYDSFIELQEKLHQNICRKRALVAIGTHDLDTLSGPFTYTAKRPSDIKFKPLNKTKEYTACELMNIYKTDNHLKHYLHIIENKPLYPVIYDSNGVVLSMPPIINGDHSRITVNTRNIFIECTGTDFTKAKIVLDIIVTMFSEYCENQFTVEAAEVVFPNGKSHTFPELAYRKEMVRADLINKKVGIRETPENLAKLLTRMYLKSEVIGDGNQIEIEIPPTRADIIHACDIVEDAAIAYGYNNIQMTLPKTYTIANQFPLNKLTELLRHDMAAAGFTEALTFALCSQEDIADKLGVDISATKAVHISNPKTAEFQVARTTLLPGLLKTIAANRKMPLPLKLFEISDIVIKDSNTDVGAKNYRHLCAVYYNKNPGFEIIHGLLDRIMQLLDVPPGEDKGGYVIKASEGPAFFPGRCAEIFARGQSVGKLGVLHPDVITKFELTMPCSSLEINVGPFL
UniProt Q9Y285: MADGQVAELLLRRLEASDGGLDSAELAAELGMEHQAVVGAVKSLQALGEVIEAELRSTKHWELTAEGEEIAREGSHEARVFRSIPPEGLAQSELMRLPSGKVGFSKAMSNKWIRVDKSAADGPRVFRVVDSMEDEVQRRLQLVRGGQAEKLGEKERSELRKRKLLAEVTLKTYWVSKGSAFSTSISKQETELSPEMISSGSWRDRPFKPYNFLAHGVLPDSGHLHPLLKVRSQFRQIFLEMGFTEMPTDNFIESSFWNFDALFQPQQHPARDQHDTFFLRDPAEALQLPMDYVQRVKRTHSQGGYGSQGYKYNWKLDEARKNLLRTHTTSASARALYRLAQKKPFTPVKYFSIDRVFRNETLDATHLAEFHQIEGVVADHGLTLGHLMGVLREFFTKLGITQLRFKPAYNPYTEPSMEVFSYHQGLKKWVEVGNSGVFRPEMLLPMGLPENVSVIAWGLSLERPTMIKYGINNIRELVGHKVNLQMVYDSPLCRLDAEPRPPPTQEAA
UniProt Q9UK73, whole entry, looked up: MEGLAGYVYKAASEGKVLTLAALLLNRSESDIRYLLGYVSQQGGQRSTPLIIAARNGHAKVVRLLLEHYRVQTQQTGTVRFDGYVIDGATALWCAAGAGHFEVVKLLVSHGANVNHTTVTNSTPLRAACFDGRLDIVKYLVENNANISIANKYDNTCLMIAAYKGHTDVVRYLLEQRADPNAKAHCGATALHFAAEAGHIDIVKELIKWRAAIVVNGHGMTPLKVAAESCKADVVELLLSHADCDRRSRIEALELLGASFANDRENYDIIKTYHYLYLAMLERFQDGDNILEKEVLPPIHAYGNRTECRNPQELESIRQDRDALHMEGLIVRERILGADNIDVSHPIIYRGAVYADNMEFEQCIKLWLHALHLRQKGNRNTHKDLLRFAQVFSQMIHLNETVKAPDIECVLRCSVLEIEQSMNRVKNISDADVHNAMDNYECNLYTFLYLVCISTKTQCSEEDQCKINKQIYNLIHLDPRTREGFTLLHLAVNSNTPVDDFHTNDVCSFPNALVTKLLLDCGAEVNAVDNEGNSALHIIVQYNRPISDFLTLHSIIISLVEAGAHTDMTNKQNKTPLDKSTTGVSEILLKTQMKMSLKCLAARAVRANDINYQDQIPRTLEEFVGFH
UniProt Q96CP2: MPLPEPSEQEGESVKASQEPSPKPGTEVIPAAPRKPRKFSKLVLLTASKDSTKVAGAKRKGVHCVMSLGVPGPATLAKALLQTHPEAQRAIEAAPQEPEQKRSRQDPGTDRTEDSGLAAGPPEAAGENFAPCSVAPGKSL
UniProt Q9Y421: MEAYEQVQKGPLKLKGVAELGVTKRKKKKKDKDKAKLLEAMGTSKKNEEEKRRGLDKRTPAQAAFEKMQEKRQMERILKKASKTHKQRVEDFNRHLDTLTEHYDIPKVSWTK
UniProt O75369, whole entry, looked up: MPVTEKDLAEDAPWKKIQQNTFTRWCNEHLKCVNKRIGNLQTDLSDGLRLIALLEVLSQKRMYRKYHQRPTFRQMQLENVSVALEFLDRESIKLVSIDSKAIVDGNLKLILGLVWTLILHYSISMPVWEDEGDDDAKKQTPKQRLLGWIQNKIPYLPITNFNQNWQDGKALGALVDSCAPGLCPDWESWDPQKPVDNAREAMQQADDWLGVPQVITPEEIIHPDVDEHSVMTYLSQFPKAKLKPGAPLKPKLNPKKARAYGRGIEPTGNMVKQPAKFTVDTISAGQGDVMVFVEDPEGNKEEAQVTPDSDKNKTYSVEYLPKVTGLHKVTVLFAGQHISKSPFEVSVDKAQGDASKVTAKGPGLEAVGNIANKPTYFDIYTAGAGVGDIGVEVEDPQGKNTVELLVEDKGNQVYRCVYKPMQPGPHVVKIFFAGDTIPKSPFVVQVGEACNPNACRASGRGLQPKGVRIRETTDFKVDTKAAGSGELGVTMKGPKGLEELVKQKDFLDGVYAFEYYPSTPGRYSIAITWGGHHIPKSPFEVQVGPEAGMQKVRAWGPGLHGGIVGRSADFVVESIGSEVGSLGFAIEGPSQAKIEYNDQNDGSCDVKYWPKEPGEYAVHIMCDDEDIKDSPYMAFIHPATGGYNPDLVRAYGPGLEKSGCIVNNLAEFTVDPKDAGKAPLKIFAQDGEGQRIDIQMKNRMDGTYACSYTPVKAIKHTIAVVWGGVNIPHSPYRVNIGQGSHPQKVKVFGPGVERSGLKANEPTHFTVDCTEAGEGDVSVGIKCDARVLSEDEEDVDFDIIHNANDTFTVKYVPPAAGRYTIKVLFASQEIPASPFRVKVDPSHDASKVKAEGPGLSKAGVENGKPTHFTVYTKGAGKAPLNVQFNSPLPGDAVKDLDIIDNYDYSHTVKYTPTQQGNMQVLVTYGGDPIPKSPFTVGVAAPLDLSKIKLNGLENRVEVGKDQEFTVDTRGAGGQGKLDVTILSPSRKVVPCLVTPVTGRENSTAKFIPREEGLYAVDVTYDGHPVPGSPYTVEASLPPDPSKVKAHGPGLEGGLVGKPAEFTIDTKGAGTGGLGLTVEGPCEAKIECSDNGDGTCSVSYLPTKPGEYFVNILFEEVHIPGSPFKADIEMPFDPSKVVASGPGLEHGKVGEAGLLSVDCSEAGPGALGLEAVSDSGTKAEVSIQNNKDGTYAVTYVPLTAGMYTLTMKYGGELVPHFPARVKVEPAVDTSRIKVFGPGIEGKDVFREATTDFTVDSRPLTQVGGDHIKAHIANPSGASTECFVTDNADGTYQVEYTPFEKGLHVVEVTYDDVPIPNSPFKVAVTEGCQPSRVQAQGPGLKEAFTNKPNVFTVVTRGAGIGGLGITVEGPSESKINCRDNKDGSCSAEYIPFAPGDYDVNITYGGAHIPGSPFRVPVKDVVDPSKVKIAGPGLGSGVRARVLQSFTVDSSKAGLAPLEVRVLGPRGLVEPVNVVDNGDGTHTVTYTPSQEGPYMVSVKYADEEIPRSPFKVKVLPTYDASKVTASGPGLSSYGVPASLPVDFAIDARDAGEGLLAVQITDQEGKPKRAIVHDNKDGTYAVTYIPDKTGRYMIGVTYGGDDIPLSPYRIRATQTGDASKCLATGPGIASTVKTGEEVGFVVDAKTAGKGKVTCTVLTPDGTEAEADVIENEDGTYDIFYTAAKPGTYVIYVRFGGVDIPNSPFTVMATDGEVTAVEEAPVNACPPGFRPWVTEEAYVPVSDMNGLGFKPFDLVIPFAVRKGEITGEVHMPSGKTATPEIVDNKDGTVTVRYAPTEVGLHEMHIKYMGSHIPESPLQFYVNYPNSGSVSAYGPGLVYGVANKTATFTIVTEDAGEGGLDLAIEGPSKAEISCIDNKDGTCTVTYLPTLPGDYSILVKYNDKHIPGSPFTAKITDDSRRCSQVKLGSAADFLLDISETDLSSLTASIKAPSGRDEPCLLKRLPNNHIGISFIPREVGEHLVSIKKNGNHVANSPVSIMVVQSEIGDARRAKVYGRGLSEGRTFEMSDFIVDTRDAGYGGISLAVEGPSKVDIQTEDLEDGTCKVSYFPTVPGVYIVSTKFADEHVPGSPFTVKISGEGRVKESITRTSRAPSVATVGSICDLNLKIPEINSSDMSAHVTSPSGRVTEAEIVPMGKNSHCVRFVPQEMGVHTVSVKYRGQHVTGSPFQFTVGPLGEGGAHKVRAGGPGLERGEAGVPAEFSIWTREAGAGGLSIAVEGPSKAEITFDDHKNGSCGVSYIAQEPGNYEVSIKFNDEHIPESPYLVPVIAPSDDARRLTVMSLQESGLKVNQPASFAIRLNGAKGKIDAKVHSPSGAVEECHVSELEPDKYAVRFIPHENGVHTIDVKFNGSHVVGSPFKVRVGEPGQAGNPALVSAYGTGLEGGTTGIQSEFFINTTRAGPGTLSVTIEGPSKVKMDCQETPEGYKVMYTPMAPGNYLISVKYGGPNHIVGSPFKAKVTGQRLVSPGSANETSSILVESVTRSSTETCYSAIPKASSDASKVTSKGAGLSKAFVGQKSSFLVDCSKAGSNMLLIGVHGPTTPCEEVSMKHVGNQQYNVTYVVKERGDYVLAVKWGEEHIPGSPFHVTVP
UniProt Q9UKT5: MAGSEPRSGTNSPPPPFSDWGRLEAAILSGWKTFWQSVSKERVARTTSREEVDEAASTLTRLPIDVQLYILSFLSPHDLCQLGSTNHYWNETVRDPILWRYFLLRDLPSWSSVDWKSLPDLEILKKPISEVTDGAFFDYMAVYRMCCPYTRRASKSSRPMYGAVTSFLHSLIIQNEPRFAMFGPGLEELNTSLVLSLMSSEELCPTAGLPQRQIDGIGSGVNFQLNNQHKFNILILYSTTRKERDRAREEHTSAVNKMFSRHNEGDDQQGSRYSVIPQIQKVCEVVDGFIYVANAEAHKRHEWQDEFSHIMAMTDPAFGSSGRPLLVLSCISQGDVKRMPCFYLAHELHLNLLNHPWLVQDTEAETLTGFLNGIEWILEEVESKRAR
UniProt Q96ME1: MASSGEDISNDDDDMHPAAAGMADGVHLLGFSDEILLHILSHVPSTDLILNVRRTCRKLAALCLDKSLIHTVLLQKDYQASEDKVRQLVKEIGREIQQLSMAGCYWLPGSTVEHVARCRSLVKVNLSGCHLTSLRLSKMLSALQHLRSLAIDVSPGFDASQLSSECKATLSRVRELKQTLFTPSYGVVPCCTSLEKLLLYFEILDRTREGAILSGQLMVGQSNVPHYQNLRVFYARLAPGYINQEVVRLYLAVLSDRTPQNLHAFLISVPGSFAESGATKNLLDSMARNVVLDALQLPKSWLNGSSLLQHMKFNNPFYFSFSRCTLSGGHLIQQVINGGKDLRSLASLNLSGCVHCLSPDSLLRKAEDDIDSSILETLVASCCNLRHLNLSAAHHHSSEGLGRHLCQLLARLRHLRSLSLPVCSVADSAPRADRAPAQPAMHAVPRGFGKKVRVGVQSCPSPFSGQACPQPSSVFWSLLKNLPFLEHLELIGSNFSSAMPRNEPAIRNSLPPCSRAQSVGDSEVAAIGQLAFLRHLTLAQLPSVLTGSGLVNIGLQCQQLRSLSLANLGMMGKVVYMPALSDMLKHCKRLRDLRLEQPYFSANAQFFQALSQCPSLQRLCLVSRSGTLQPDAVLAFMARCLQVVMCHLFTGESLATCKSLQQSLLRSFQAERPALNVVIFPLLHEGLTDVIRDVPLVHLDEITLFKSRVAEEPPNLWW
UniProt Q9UBU6: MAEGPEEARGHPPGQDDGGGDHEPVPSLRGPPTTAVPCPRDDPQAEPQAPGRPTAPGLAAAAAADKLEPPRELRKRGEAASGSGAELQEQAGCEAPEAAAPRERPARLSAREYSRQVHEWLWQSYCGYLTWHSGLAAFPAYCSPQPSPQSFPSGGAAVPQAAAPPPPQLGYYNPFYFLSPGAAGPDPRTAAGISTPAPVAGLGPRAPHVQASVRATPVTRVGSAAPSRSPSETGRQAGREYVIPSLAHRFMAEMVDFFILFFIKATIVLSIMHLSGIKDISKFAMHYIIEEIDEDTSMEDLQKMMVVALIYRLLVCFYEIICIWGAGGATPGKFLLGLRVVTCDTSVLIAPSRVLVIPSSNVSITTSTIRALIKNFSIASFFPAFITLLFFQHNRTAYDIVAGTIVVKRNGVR

Legend:
Experiment in all cases: log2 fold change, soluble protein after heating vs DMSO (PISA); higher = thermal stabilisation; K562 cells, 10 uM, 30 min; active = over 0.2 and 3.5 SD of the protein, either way, in both replicates (recomputed)
[1] = compound: CC[C@@H]1C(=O)N(C)c2cnc(Nc3ccc(C(=O)NC4CCN(C)CC4)cc3OC)nc2N1C1CCCC1
Procedure, shortened: (§1)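 Aliquots of K562 cells (2×10^6 cells/mL) treated with 10 μM compound for 30 min were heated for 3 min over 48°C-58°C. After pooling and extraction in PBS with 0.5% NP-40 at 4°C, soluble protein from a 21,000xg, 90 min spin was quantified by TMTpro 16plex LC-MS/MS with channel sums equalised. Thermal stability is expressed against control samples, from duplicates, as a log2 fold change.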

volasertib = compound: CC[C@@H]1C(=O)N(C)c2cnc(Nc3ccc(C(=O)N[C@H]4CC[C@H](N5CCN(CC6CC6)CC5)CC4)cc3OC)nc2N1C(C)C [volasertib]
Procedure, shortened: as §1

[2] = compound: CC[C@H](C)N1C=C(C2=C(C=C(C=C21)C3=CN=C(C=C3)N4CCNCC4)C(=O)NCC5=C(C=C(NC5=O)C)C)C
Procedure, shortened: as §1

epoxomicin = compound: CC[C@H](C)[C@@H](C(=O)N[C@@H]([C@@H](C)O)C(=O)N[C@@H](CC(C)C)C(=O)[C@]1(CO1)C)NC(=O)[C@H]([C@@H](C)CC)N(C)C(=O)C [epoxomicin]
Procedure, shortened: as §1

[3] = compound: CCn1c(C(=O)N(C2CC2)C2CC2)cc2c3c(ncn3C)c(Nc3cc(C)n(C)n3)nc21
Procedure, shortened: as §1

[4] = compound: CCn1cc(-c2ccnc3[nH]c(-c4cccc(CN(C)C)c4)cc23)c(-c2ccc(NC(=O)N(C)C)cc2)n1
Procedure, shortened: as §1

[5] = compound: CN(C)CC(=O)Nc1ccc2[nH]c(=O)c3ccccc3c2c1
Procedure, shortened: as §1

rosiglitazone = compound: CN(CCOC1=CC=C(C=C1)C[C@H]2C(=O)NC(=O)S2)C3=CC=CC=N3 (racemic) [rosiglitazone]
Procedure, shortened: as §1

[6] = compound: CN1C2=C(C3=C1C(=O)N(N=C3)CC4=CC(=CC=C4)N)SC(=C2)S(=O)C
Procedure, shortened: as §1

[7] = compound: CN1CCC(CNc2ccc3ncc(-c4cccc(OC(F)(F)F)c4)n3n2)CC1
Procedure, shortened: as §1

saracatinib = compound: CN1CCN(CCOc2cc(OC3CCOCC3)c3c(Nc4c(Cl)ccc5c4OCO5)ncnc3c2)CC1 [saracatinib]
Procedure, shortened: as §1

sotrastaurin = compound: CN1CCN(c2nc(C3=C(c4c[nH]c5ccccc45)C(=O)NC3=O)c3ccccc3n2)CC1 [sotrastaurin]
Procedure, shortened: as §1

alvocidib = compound: CN1CC[C@H](c2c(O)cc(O)c3c(=O)cc(-c4ccccc4Cl)oc23)[C@H](O)C1 [alvocidib]
Procedure, shortened: as §1

Tubastatin A = compound: CN1CCc2c(c3ccccc3n2Cc2ccc(C(=O)NO)cc2)C1 [Tubastatin A]
Procedure, shortened: as §1

[8] = compound: CNC(=O)C1=CC=CC=C1NC2=NC(=NC=C2Cl)NC3=C(C=C(C=C3)N4CCOCC4)OC
Procedure, shortened: as §1

defactinib = compound: CNC(=O)c1ccc(Nc2ncc(C(F)(F)F)c(NCc3nccnc3N(C)S(C)(=O)=O)n2)cc1 [defactinib]
Procedure, shortened: as §1

rucaparib = compound: CNCc1ccc(-c2[nH]c3cc(F)cc4c3c2CCNC4=O)cc1 [rucaparib]
Procedure, shortened: as §1

[9] = compound: CNc1nc(-c2ccc3c(N)n[nH]c3c2)cc(N2C[C@@H](C(=O)NC3CCCCC3)CC[C@H]2C)n1
Procedure, shortened: as §1

encorafenib = compound: COC(=O)N[C@@H](C)CNc1nccc(-c2cn(C(C)C)nc2-c2cc(Cl)cc(NS(C)(=O)=O)c2F)n1 [encorafenib]
Procedure, shortened: as §1

[10] = compound: COC(=O)[C@H](CCSC)NC(=O)C1=C(C=C(C=C1)NC[C@H](CS)N)C2=CC=CC=C2
Procedure, shortened: as §1

Measured: log2 fold change

FKBP5 (UniProt Q13451)
inactive: [1] -0.101 | volasertib -0.432 | [2] 0.154 | epoxomicin 0.029 | [3] -0.083 | [4] -0.009 | [5] 0.118 | rosiglitazone 0.082 | [6] 0.066 | [7] -0.165 | saracatinib -0.098 | sotrastaurin -0.182 | alvocidib -0.093 | Tubastatin A 0.041 | [8] 0.028 | defactinib -0.117 | rucaparib 0.169 | [9] 0.084 | encorafenib 0.134 | [10] -0.085

FARSB (UniProt Q9NSD9)
inactive: [1] -0.017 | volasertib -0.111 | [2] 0.033 | epoxomicin -0.017 | [3] -0.019 | [4] -0.019 | [5] 0 | rosiglitazone 0.01 | [6] -0.031 | [7] -0.016 | saracatinib -0.061 | sotrastaurin -0.025 | alvocidib -0.017 | Tubastatin A -0.008 | [8] 0.009 | defactinib -0.039 | rucaparib 0.019 | [9] 0.031 | encorafenib 0.032 | [10] -0.029

FAM76B (UniProt Q5HYJ3)
inactive: [1] 0.119 | volasertib -0.139 | [2] -0.097 | epoxomicin -0.017 | [3] -0.014 | [4] -0.046 | [5] -0.168 | rosiglitazone 0.012 | [6] 0.026 | [7] 0.244 | saracatinib -0.033 | sotrastaurin -0.135 | alvocidib 0.087 | Tubastatin A -0.067 | [8] 0.028 | defactinib -0.058 | rucaparib -0.136 | [9] -0.069 | encorafenib 0.021 | [10] 0.068

FARSA (UniProt Q9Y285)
inactive: [1] -0.005 | volasertib -0.111 | [2] 0.064 | epoxomicin -0.024 | [3] -0.004 | [4] -0.054 | [5] 0.042 | rosiglitazone 0.04 | [6] 0.005 | [7] 0.023 | saracatinib -0.007 | sotrastaurin 0.013 | alvocidib -0.056 | Tubastatin A -0.012 | [8] 0.045 | defactinib -0.057 | rucaparib 0.073 | [9] 0.062 | encorafenib 0.036 | [10] -0.027

FN3K (UniProt Q9H479)
inactive: [1] 0.019 | volasertib 0.03 | [2] -0.008 | epoxomicin 0.001 | [3] -0.003 | [4] -0.034 | [5] -0.014 | rosiglitazone -0.025 | [6] -0.046 | [7] 0.07 | saracatinib 0.007 | sotrastaurin 0.006 | alvocidib -0.005 | Tubastatin A -0.056 | [8] -0.057 | defactinib -0.008 | rucaparib 0.021 | [9] -0.017 | encorafenib -0.018 | [10] 0.033

FEM1B (UniProt Q9UK73)
inactive: [1] -0.01 | volasertib 0.051 | [2] -0.03 | epoxomicin 0.122 | [3] -0.014 | [4] 0.103 | [5] -0.044 | rosiglitazone 0.012 | [6] -0.026 | [7] -0.058 | saracatinib 0.015 | sotrastaurin 0.002 | alvocidib 0.014 | Tubastatin A 0.094 | [8] -0.074 | defactinib 0.001 | rucaparib 0 | [9] -0.031 | encorafenib 0.082 | [10] 0.007

FKBP14 (UniProt Q9NWM8)
inactive: [1] -0.04 | volasertib 0.12 | [2] 0.054 | epoxomicin -0.01 | [3] 0.045 | [4] -0.032 | [5] 0.036 | rosiglitazone 0.038 | [6] -0.219 | [7] 0.121 | saracatinib -0.051 | sotrastaurin 0.072 | alvocidib -0.056 | Tubastatin A 0.018 | [8] -0.038 | defactinib -0.026 | rucaparib 0.063 | [9] 0.104 | encorafenib 0.009 | [10] -0.067

FLYWCH2 (UniProt Q96CP2)
inactive: [1] 0.026 | volasertib 0.052 | [2] -0.013 | epoxomicin 0.033 | [3] -0.019 | [4] -0.003 | [5] 0 | rosiglitazone 0.032 | [6] 0.003 | [7] 0.086 | saracatinib -0.037 | sotrastaurin 0.087 | alvocidib -0.035 | Tubastatin A -0.031 | [8] -0.079 | defactinib -0.045 | rucaparib -0.099 | [9] -0.033 | encorafenib -0.001 | [10] 0.095

FN1 isoform 1 (UniProt P02751)
inactive: [1] -0.02 | volasertib 0.009 | [2] -0.007 | epoxomicin -0.198 | [3] -0.044 | [4] -0.011 | [5] -0.062 | rosiglitazone 0.055 | [6] 0.18 | [7] -0.1 | saracatinib 0.028 | sotrastaurin 0.107 | alvocidib 0.07 | Tubastatin A -0.044 | [8] -0.071 | defactinib -0.035 | rucaparib -0.077 | [9] -0.042 | encorafenib -0.018 | [10] 0.007

FAM32A (UniProt Q9Y421)
inactive: [1] 0.136 | volasertib 0.194 | [2] -0.172 | epoxomicin -0.055 | [3] 0.004 | [4] 0.154 | [5] -0.048 | rosiglitazone -0.009 | [6] 0.174 | [7] 0.13 | saracatinib 0.028 | sotrastaurin -0.155 | alvocidib 0.246 | Tubastatin A 0.069 | [8] 0.005 | defactinib 0.211 | rucaparib 0.124 | [9] -0.003 | encorafenib 0.032 | [10] -0.004

FLNB isoform 8 (UniProt O75369)
inactive: [1] -0.047 | volasertib -0.09 | [2] 0.021 | epoxomicin 0.043 | [3] -0.028 | [4] -0.006 | [5] 0.013 | rosiglitazone 0.023 | [6] -0.043 | [7] -0.018 | saracatinib -0.002 | sotrastaurin -0.018 | alvocidib -0.029 | Tubastatin A -0.002 | [8] 0.057 | defactinib -0.045 | rucaparib -0.01 | [9] -0.035 | encorafenib -0.007 | [10] -0.007

FAM78A (UniProt Q5JUQ0)
inactive: [1] 0.015 | volasertib -0.159 | [2] -0.027 | epoxomicin -0.02 | [3] 0.053 | [4] -0.081 | [5] -0.044 | rosiglitazone 0.057 | [6] 0.094 | [7] 0.089 | saracatinib -0.185 | sotrastaurin 0.041 | alvocidib -0.054 | Tubastatin A 0.014 | [8] 0.008 | defactinib 0.048 | rucaparib 0.031 | [9] -0.096 | encorafenib 0.162 | [10] -0.068

FBXO4 (UniProt Q9UKT5)
inactive: [1] -0.099 | volasertib -0.189 | [2] 0.045 | epoxomicin -0.054 | [3] -0.004 | [4] -0.123 | [5] 0.022 | rosiglitazone 0.007 | [6] -0.051 | [7] -0.093 | saracatinib 0.007 | sotrastaurin -0.08 | alvocidib -0.107 | Tubastatin A -0.037 | [8] 0.006 | defactinib -0.104 | rucaparib 0.015 | [9] 0.045 | encorafenib -0.034 | [10] 0.037

FLNC (UniProt Q14315)
inactive: [1] -0.022 | volasertib -0.063 | [2] 0.017 | epoxomicin -0.011 | [3] -0.01 | [4] -0.023 | [5] -0.002 | rosiglitazone 0.025 | [6] -0.037 | [7] -0.005 | saracatinib 0.003 | sotrastaurin -0.018 | alvocidib -0.024 | Tubastatin A -0.02 | [8] 0.05 | defactinib -0.012 | rucaparib 0 | [9] -0.021 | encorafenib 0.004 | [10] -0.011

FBXL18 isoform 4 (UniProt Q96ME1)
inactive: [1] -0.013 | volasertib -0.066 | [2] 0.025 | epoxomicin 0.049 | [3] -0.027 | [4] -0.075 | [5] 0.022 | rosiglitazone 0.006 | [6] -0.045 | [7] -0.017 | saracatinib 0.014 | sotrastaurin -0.039 | alvocidib -0.015 | Tubastatin A -0.033 | [8] -0.002 | defactinib -0.077 | rucaparib -0.035 | [9] -0.031 | encorafenib -0.013 | [10] -0.028

FAM8A1 (UniProt Q9UBU6)
inactive: [1] -0.049 | volasertib 0.078 | [2] 0.04 | epoxomicin 0.061 | [3] 0.037 | [4] -0.081 | [5] -0.036 | rosiglitazone 0.016 | [6] 0.023 | [7] -0.135 | saracatinib 0.034 | sotrastaurin -0.036 | alvocidib 0.054 | Tubastatin A 0.126 | [8] -0.047 | defactinib -0.062 | rucaparib 0.008 | [9] -0.048 | encorafenib 0.005 | [10] -0.019

Copied from the entries so far (4 entries):
FLNB isoform 8 (UniProt O75369)
inactive: [1] -0.047 | volasertib -0.09 | [2] 0.021 | epoxomicin 0.043 | [3] -0.028 | [4] -0.006 | [5] 0.013 | rosiglitazone 0.023 | [6] -0.043 | [7] -0.018 | saracatinib -0.002 | sotrastaurin -0.018 | alvocidib -0.029 | Tubastatin A -0.002 | [8] 0.057 | defactinib -0.045 | rucaparib -0.01 | [9] -0.035 | encorafenib -0.007 | [10] -0.007

FAM78A (UniProt Q5JUQ0)
inactive: [1] 0.015 | volasertib -0.159 | [2] -0.027 | epoxomicin -0.02 | [3] 0.053 | [4] -0.081 | [5] -0.044 | rosiglitazone 0.057 | [6] 0.094 | [7] 0.089 | saracatinib -0.185 | sotrastaurin 0.041 | alvocidib -0.054 | Tubastatin A 0.014 | [8] 0.008 | defactinib 0.048 | rucaparib 0.031 | [9] -0.096 | encorafenib 0.162 | [10] -0.068

FBXO4 (UniProt Q9UKT5)
inactive: [1] -0.099 | volasertib -0.189 | [2] 0.045 | epoxomicin -0.054 | [3] -0.004 | [4] -0.123 | [5] 0.022 | rosiglitazone 0.007 | [6] -0.051 | [7] -0.093 | saracatinib 0.007 | sotrastaurin -0.08 | alvocidib -0.107 | Tubastatin A -0.037 | [8] 0.006 | defactinib -0.104 | rucaparib 0.015 | [9] 0.045 | encorafenib -0.034 | [10] 0.037

FLNC (UniProt Q14315)
inactive: [1] -0.022 | volasertib -0.063 | [2] 0.017 | epoxomicin -0.011 | [3] -0.01 | [4] -0.023 | [5] -0.002 | rosiglitazone 0.025 | [6] -0.037 | [7] -0.005 | saracatinib 0.003 | sotrastaurin -0.018 | alvocidib -0.024 | Tubastatin A -0.02 | [8] 0.05 | defactinib -0.012 | rucaparib 0 | [9] -0.021 | encorafenib 0.004 | [10] -0.011
